For assay [1], the target named is T1, thioredoxin 2 (Trx2) (mouse (endogenous in mouse atrium and HL-1 cells)) (UniProt P97493).
T1 sequence: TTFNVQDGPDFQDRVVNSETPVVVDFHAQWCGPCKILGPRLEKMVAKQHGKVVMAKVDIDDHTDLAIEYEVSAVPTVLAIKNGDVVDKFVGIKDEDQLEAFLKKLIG
Nature of the assay: co-IP; endogenous proteins from HL-1 cells (mitochondria) under high glucose (30 mM) or normal glucose; IP lysis buffer, protein A/G magnetic beads, Txnip or Trx2 antibody (20 ug/mL) or IgG, immunoblot; with Zbtb16 or Txnip knockdown by adenovirus.

Assay [2] deals with T1, thioredoxin 2 (Trx2) (mouse (endogenous in mouse atrium and HL-1 cells)). Nature of the assay: co-IP; endogenous proteins from atrium mitochondria of db/+ and db/db mice; IP lysis buffer, protein A/G magnetic beads, Txnip or Trx2 antibody (20 ug/mL) or IgG, 1 h at room temperature, immunoblot; also after atrial-specific Zbtb16 or Txnip knockdown by AAV9.

This note sets out measurements from paper PMC10864461.

Results are given in words; binding and its absence hold for the method and conditions named. Binding seen in cells or lysates may run through a third protein. Some binding calls cover weakened binding; strength is not graded here.

B1: thioredoxin interacting protein (Txnip) (protein, UniProt Q8BG60 1-397)
chain: MVMFKKIKSFEVVFNDPEKVYGSGEKVAGRVIVEVCEVTRVKAVRILACGVAKVLWMQGSQQCKQTLDYLRYEDTLLLEEQPTAGENEMVIMRPGNKYEYKFGFELPQGPLGTSFKGKYGCVDYWVKAFLDRPSQPTQEAKKNFEVMDLVDVNTPDLMAPVSAKKEKKVSCMFIPDGRVSVSARIDRKGFCEGDDISIHADFENTCSRIVVPKAAIVARHTYLANGQTKVFTQKLSSVRGNHIISGTCASWRGKSLRVQKIRPSILGCNILKVEYSLLIYVSVPGSKKVILDLPLVIGSRSGLSSRTSSMASRTSSEMSWIDLNIPDTPEAPPCYMDIIPEDHRLESPTTPLLDDVDDSQDSPIFMYAPEFQFMPPPTYTEVDPCVLNNNNNNNNVQ
On to B1, for which the binding result in assay [1] and in assay [2] was “binds” throughout.
